Record: PubChem BioAssay AID686937 (Drosophila RNAi Screening Center, 2013)
Test: 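Genes whose loss weakens secretory pathway function in fly cells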 (primary screen). System: Drosophila S2 cells expressing secreted horseradish peroxidase. Reagent: long dsRNA against Drosophila genes. Timing: about 5.5 days (5 days dsRNA, then 12 h reporter induction). Treatment: reporter expression induced after 5 days of dsRNA, read 12 h later; inducer not stated. Read-out: 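Chemiluminescent measurement of peroxidase in the medium 12 h after reporter induction, following 5 days of dsRNA, given as a z-score per plate; higher means more secretion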. Scale: z-score: higher = more reporter secreted into medium.
The deposit covers about 23,000 reagents; shown is a random part of those that have a named target and a result. 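Reduced-secretion tags in replicate 1 do not always agree with the z-scores; no criterion for assigning the tags was given.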 The numbers tell different reagents against one gene apart. A plus sign joins genes that one reagent is predicted to hit. Not all columns of the deposit are shown. Reagent sequences are not shown. The record does not give: the amount of reagent.

The first 2 entries as a preview:
| gene | dsRNA no. | z-score, replicate 1 |
| --- | --- | --- |
| Acp95EF + Spase22-23 | 1 | 0.34 |
| polo | 1 | -1.35 |

Main list, repeating the preview:
| gene | dsRNA no. | z-score, replicate 1 |
| --- | --- | --- |
| Acp95EF + Spase22-23 | 1 | 0.34 |
| polo | 1 | -1.35 |
| polo | 2 | -2.03 |
| msl-3 | 1 | 0.56 |
| Zip102B | 1 | 0.05 |
| CG13481 | 1 | 0.22 |
| CG14743 | 1 | 0.18 |
| 2mit | 1 | 0.59 |
| 2mit | 2 | 0.33 |
| DCAF12 | 1 | 0.28 |
| CG11882 | 1 | 0.07 |
| cad | 1 | -1.68 |
| Nup154 | 1 | -0.84 |
| wapl | 1 | 0.22 |
| CG32971 | 1 | -0.31 |
| CG11068 | 1 | 0.36 |
| ktub | 1 | 0.35 |
| mRpL52 | 1 | 0.24 |
| Pef | 1 | 0.29 |
| Rad9 | 1 | 0.4 |
| Gpo2 | 1 | 0.39 |
| CG33458 | 1 | -0.37 |
| CG1764 | 1 | 0.22 |
| HP6 | 1 | -0.1 |
| CG17124 | 1 | 0.17 |
| CG11414 | 1 | 0.24 |
| Fim | 1 | 0.26 |
| Muc68D | 1 | 0.09 |
| CG12684 | 1 | 0.28 |
| Sf3b5 | 1 | -2.58 |
| CG13488 | 1 | -0.02 |
| CG4115 | 1 | 0.45 |
| Ndc1 | 1 | -0.19 |
